The values below are quoted from earlier work in publication PMC10846865, “The Blood-Brain Barrier: Implications for Experimental Cancer Therapeutics” (Annual review of cancer biology, 2023).

For this data set the following is noted: cited from earlier work.

As for `CCc1cccc2cc(C(O)CNC(C)(C)C)oc12` (centres unmarked) [Bufuralol], the “Detection by MALDI” value (in tissue, ref Mass spectrometry imaging of cassette-dosed drugs for higher throughput pharmacokinetic and biodistribution analysis) is “Positive ion mode: m/z 262.2 > 188.1 Not detected by MALDI in tissue, Detected without tissue by MALDI”.
Take `C[C@H]1c2cccc(O)c2C(O)=C2C(=O)[C@]3(O)C(O)=C(C(N)=O)C(=O)[C@@H](N(C)C)[C@@H]3[C@@H](O)[C@@H]21` [Doxycyclin]: the LOD (MALDI-MS, CHCA matrix, ref Rapid and widespread distribution of doxycycline in rat brain: a mass spectrometric imaging study.) is 100 ng/mL.
